Measured values as given in the odorant receptor screen of Mainland et al. (2015).
Where “and” joins values, the source holds several entries; their conditions need not be identical. Identical values can stand only once. The list shows a part of the results. Each value is one well over the wells without odorant, computed here; the data are noisy.

Tests used:
Assay in all cases: odorant receptor activation (CRE luciferase / Renilla) (fold of no-odor wells); higher = more activation
Conditions in all cases: 100 µM
OR13C3 G2C clone 1339 = system: OR13C3 G2C clone 1339
OR13C3 clone 1390 = system: OR13C3 clone 1390
OR13C4 clone 1094 = system: OR13C4 clone 1094
[1] = system: OR13C5 S18F/L69M/P79S/L86V/N128S/M258T clone 1477
OR13C7 Indel clone 1100 = system: OR13C7 Indel clone 1100
OR13C8 clone 1095 = system: OR13C8 clone 1095
OR13C9 F197L clone 1096 = system: OR13C9 F197L clone 1096
OR13D1 clone 1338 = system: OR13D1 clone 1338
OR13D1 clone 1484 = system: OR13D1 clone 1484
[2] = system: OR13F1 F18S/M101V/V134I/I270T clone 1097
OR13G1 I132V clone 1036 = system: OR13G1 I132V clone 1036
OR13H1 clone 1497 = system: OR13H1 clone 1497
OR13J1 H133R clone 1098 = system: OR13J1 H133R clone 1098
OR14A16 Indel clone 1030 = system: OR14A16 Indel clone 1030
OR14A2 clone 1042 = system: OR14A2 clone 1042
[3] = system: OR14C36 G225R/D231Y clone 1028
[4] = system: OR14I1 V36A/D50N/S170N clone 1479
OR14J1 clone 1318 = system: OR14J1 clone 1318
OR14J1 clone 1391 = system: OR14J1 clone 1391
OR14K1 clone 1043 = system: OR14K1 clone 1043

Row | SMILES | odorant receptor activation (OR13C3 G2C clone 1339) | odorant receptor activation (OR13C3 clone 1390) | odorant receptor activation (OR13C4 clone 1094) | odorant receptor activation [1] | odorant receptor activation (OR13C7 Indel clone 1100) | odorant receptor activation (OR13C8 clone 1095) | odorant receptor activation (OR13C9 F197L clone 1096) | odorant receptor activation (OR13D1 clone 1338) | odorant receptor activation (OR13D1 clone 1484) | odorant receptor activation [2] | odorant receptor activation (OR13G1 I132V clone 1036) | odorant receptor activation (OR13H1 clone 1497) | odorant receptor activation (OR13J1 H133R clone 1098) | odorant receptor activation (OR14A16 Indel clone 1030) | odorant receptor activation (OR14A2 clone 1042) | odorant receptor activation [3] | odorant receptor activation [4] | odorant receptor activation (OR14J1 clone 1318) | odorant receptor activation (OR14J1 clone 1391) | odorant receptor activation (OR14K1 clone 1043)
1 | CCCCCCCOC(C)=O [heptyl acetate] | 0.99 and 1.13 | 1.07 | 0.944 | 0.837 and 1.17 | 0.818 | 1.54 | 0.981 | 1.73 and 0.983 | 1.03 and 1.31 | 1.28 | 0.634 | 0.885 and 1.21 | 0.415 | 1.63 | 1.34 | 1.06 | 0.875 and 1.2 | 0.687 and 1.09 | 0.981 | 1.96
2 | CCCCO [1-butanol] | 1.15 | 1.43 | 21.3 | 1.06 | 12.8 | 2.88 | 22 | 0.992 | 1.03 | 2.05 | 2.07 | 1.06 | 3.81 | 2.96 | 3.46 | 2.96 | 1.12 | 0.995 | 1.84 | 3.09
3 | CC(=O)OCC=C(C)CCC=C(C)C [geranyl acetate] | 1.5 and 1.31 | 1.15 | 1.38 | 0.78 and 1.2 | 0.622 | 2.11 | 2.12 | 2.6 and 0.909 | 1.27 and 1.42 | 4.5 | 1.63 | 0.951 and 1.28 | 0.803 | 2.71 | 1.23 | 1.44 | 1.06 and 1.22 | 1.13 and 1.14 | 1.11 | 2.34
4 | CCC1(O)C2(C)CCC(C2)C1(C)C (stereo not drawn) [2-ethylfenchol] | 0.991 | 0.932 | 21.8 | 1.22 | 13.5 | 2.42 | 24.7 | 0.87 | 0.793 | 2.17 | 3.36 | 0.984 | 3.53 | 3.55 | 2.8 | 2.62 | 0.87 | 1.25 | 1.17 | 3.09
5 | CC(C)C(=O)O [isobutyric acid] | 1.05 and 0.83 | 0.649 | 1.08 | 0.993 and 0.924 | 0.506 | 1.31 | 1.12 | 1.25 and 0.676 | 1.11 and 0.979 | 2.34 | 1.44 | 0.911 and 1.1 | 0.754 | 1.32 | 1.04 | 1.15 | 1.02 and 0.919 | 2.15 and 0.804 | 0.637 | 1.12
6 | C=C(C)C1CC=CCC1 (stereo not drawn) [r-limonene] | – | 1.09 and 0.917 | 1.21 and 1.11 | 1.04 and 0.368 and 0.635 | 0.87 and 1.14 | 1.46 and 1.92 | 1.33 and 1.58 | 0.869 and 0.429 | 0.859 and 1.02 and 0.942 | 1.32 and 1.21 | 1.52 and 0.7 | – | 1.69 and 1.38 | 1.67 and 0.859 | 1.14 and 2.2 | 1.17 and 1.26 | 0.84 and 0.673 and 0.753 | 0.797 and 0.275 | 1.29 and 0.937 | 1.2 and 1.22
7 | CCCCCCCC=CC=O [2-decenal] | 1.19 | 1.3 | 23.2 | 1.55 | 13.7 | 3.48 | 33.8 | 0.99 | 1.33 | 2.01 | 29.7 | 1.64 | 3.22 | 4.52 | 15.8 | 11.6 | 1.19 | 1.57 | 2.85 | 10.4
8 | CC(C)CCC(=O)O [4-methylvaleric acid] | 1.22 | 1.08 | 14.7 | 0.993 | 6.86 | 1.52 | 13.8 | 0.838 | 0.815 | 1.17 | 1.39 | 1.04 | 1.92 | 1.75 | 1.73 | 1.77 | 0.813 | 1.07 | 1.52 | 1.64
9 | CC(C)CC(=O)O [isovaleric acid] | 0.913 | 0.64 | 1.12 | 0.961 | 1.18 | 1.14 | 1.13 | 1.03 | 0.712 | 1.37 | 1.13 | 0.928 | 1.4 | 1.42 | 1.09 | 1.28 | 0.791 | 0.708 | 0.765 | 1.08
10 | COC(=O)c1ccccc1O [methyl salicylate] | 1.07 | 0.797 | 0.922 | 0.98 | 0.932 | 1.21 | 1.06 | 1.14 | 0.854 | 1.02 | 1.17 | 0.958 | 1.01 | 1.25 | 1.23 | 1.1 | 0.92 | 0.793 | 0.84 | 0.98
11 | CC12CCC(C1)C(C)(C)C2=O (stereo not drawn) [fenchone] | 0.962 | 0.837 | 0.792 | 0.901 | 0.814 | 0.853 | 1.04 | 0.874 | 1.31 | 0.802 | 0.935 | 1.07 | 1.17 | 1.16 | 1.09 | 0.966 | 0.977 | 0.969 | 1.02 | 1.12
12 | CC(C)(C)c1ccc(CCC=O)cc1 [bourgeonal] | 1.03 | 0.167 | 0.775 | 0.968 | 0.795 | 0.913 | 0.924 | 0.707 | 0.857 | 0.992 | 0.872 | 0.959 | 0.767 | 0.663 | 0.952 | 0.607 | 1.17 | 0.604 | 0.133 | 0.944
13 | COC(=O)c1ccccc1 [methyl benzoate] | 0.366 | 0.976 | 1.24 | 0.388 and 0.715 | 1.15 | 2.3 | 1.57 | 0.951 | 1.38 and 0.911 | 1.62 | 1.01 | 0.592 and 1.15 | 1.04 | 0.709 | 1.21 | 0.545 | 0.721 and 0.778 | 0.661 | 0.601 | 1.31
14 | CCCCCC(C)=O [2-heptanone] | 0.91 | 0.988 | 0.479 | 0.739 and 0.544 | 0.964 | 1.11 | 0.441 | 1.16 | 1.09 and 0.746 | 0.635 | 0.409 | 0.727 and 0.715 | 0.576 | 0.32 | 2.08 | 0.443 | 0.759 and 0.582 | 0.996 | 0.928 | 1.21
